Data: ChEMBL document CHEMBL3046102, “Antibacterial and antifungal activities of some trimethoprim salts” (2012)
In brackets after ≈: the same amount, converted by molar mass.

Tested on: Escherichia coli
Test: microbe, parasite or virus in culture
Type: functional
Details: ATCC 35218

With `O=C(N[C@H](CO)[C@H](O)c1ccc([N+](=O)[O-])cc1)C(Cl)Cl` [CHLORAMPHENICOL] the MIC was 50 µg/mL (≈ 155 µM).
